The results in this text go back to the supplement of paper PMC12819154, “High-throughput peptide-centric local stability assay extends protein–ligand identification to membrane proteins, tissues and bacteria” (Nature Structural & Molecular Biology, 2025).

Sequences of proteins named here, by UniProt entry; tags and fusion partners are left off. A change or cut given only in a name is not applied to a line headed by its entry.
UniProt Q13111, whole entry: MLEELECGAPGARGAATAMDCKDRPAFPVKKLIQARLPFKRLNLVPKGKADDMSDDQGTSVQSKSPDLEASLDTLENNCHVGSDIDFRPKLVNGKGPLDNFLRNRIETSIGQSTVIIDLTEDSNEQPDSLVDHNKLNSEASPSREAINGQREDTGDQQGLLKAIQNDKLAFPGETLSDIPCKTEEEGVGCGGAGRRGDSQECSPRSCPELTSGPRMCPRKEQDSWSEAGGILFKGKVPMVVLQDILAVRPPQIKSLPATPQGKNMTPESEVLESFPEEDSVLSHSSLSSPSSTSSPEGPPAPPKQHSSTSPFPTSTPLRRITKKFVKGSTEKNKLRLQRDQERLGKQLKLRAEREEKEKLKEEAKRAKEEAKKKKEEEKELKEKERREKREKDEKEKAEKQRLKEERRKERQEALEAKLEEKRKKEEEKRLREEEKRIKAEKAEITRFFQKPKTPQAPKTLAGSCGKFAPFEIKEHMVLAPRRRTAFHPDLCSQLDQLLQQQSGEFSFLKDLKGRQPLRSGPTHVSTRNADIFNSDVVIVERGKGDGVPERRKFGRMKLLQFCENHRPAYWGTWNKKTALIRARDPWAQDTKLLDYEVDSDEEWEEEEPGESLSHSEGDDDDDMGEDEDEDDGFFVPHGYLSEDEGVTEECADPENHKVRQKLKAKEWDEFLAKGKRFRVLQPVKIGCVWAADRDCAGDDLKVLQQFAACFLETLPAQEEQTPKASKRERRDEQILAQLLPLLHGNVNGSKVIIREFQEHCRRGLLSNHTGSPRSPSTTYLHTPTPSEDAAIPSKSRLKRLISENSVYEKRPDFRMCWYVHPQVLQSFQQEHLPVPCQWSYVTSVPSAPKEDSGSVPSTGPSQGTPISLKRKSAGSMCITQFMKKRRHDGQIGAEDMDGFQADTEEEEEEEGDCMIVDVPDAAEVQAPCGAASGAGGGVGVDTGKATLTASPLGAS
UniProt Q14498: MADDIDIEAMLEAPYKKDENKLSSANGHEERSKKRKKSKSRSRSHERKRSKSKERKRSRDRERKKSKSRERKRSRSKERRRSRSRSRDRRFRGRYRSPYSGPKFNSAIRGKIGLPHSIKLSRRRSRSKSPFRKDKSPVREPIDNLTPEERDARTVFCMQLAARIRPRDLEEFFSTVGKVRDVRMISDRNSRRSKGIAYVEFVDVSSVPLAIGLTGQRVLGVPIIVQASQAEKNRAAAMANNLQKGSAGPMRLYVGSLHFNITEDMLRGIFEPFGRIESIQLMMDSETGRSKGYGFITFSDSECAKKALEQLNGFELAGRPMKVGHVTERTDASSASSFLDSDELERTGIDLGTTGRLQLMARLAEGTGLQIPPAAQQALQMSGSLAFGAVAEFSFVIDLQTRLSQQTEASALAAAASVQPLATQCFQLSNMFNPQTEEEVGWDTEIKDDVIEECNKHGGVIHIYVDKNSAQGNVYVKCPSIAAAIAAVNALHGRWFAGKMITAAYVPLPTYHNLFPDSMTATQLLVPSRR
UniProt Q14320: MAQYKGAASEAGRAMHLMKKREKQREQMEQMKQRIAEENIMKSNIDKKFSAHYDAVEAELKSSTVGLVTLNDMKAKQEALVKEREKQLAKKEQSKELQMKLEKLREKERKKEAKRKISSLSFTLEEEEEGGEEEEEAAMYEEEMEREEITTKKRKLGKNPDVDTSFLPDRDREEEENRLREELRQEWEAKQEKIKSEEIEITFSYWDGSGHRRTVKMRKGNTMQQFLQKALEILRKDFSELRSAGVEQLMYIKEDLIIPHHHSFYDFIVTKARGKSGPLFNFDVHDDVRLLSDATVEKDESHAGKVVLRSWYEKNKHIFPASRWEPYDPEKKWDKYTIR
UniProt Q14192: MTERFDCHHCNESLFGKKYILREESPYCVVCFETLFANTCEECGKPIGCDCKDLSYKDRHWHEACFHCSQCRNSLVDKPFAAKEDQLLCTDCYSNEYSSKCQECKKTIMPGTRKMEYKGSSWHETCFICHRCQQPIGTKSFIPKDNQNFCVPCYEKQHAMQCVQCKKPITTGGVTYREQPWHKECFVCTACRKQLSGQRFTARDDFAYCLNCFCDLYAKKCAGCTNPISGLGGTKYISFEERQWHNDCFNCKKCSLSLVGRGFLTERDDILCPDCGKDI
UniProt Q14444, whole entry: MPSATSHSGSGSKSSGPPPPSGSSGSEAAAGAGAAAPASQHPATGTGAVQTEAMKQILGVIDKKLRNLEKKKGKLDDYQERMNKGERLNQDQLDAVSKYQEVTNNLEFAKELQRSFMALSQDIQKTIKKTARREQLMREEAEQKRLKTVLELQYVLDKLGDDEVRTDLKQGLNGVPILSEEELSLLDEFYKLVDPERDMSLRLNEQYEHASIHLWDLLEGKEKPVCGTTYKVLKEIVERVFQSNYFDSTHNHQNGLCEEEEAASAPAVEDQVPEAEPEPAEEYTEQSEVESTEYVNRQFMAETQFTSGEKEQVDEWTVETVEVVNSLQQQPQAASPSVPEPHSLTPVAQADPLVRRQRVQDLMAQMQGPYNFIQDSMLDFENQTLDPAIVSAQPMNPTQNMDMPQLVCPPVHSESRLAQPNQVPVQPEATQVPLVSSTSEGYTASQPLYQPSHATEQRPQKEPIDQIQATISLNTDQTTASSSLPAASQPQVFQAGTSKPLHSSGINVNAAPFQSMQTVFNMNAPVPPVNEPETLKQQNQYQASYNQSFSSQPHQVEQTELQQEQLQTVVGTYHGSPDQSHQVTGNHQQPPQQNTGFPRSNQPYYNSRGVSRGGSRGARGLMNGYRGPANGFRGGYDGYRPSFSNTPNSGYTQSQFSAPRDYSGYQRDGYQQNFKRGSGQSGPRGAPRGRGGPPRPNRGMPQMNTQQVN
UniProt Q14680: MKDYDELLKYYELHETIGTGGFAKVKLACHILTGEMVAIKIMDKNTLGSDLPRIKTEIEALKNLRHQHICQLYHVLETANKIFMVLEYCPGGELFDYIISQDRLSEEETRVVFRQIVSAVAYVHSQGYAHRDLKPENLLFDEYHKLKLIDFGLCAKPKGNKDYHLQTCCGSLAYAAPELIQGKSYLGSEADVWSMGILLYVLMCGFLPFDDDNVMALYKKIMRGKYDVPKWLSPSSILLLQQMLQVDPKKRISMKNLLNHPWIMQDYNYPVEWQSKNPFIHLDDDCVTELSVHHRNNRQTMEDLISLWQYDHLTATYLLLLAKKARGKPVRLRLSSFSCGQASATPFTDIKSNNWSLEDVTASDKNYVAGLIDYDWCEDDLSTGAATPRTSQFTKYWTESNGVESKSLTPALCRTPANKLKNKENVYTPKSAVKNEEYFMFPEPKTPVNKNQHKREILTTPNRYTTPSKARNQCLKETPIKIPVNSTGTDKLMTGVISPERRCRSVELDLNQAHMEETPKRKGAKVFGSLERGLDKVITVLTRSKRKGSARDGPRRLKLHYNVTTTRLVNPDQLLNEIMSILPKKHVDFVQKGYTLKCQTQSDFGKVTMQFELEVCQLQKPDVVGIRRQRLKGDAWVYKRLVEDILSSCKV
UniProt Q13347, whole entry: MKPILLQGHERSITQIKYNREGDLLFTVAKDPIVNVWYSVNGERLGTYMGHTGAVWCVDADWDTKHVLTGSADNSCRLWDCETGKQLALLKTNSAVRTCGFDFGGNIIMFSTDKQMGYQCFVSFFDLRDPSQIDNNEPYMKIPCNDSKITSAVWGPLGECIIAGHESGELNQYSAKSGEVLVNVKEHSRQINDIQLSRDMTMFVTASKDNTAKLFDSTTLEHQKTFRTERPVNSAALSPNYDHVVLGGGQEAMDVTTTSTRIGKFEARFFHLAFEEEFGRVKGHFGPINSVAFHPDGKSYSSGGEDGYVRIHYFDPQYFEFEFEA
UniProt Q14669: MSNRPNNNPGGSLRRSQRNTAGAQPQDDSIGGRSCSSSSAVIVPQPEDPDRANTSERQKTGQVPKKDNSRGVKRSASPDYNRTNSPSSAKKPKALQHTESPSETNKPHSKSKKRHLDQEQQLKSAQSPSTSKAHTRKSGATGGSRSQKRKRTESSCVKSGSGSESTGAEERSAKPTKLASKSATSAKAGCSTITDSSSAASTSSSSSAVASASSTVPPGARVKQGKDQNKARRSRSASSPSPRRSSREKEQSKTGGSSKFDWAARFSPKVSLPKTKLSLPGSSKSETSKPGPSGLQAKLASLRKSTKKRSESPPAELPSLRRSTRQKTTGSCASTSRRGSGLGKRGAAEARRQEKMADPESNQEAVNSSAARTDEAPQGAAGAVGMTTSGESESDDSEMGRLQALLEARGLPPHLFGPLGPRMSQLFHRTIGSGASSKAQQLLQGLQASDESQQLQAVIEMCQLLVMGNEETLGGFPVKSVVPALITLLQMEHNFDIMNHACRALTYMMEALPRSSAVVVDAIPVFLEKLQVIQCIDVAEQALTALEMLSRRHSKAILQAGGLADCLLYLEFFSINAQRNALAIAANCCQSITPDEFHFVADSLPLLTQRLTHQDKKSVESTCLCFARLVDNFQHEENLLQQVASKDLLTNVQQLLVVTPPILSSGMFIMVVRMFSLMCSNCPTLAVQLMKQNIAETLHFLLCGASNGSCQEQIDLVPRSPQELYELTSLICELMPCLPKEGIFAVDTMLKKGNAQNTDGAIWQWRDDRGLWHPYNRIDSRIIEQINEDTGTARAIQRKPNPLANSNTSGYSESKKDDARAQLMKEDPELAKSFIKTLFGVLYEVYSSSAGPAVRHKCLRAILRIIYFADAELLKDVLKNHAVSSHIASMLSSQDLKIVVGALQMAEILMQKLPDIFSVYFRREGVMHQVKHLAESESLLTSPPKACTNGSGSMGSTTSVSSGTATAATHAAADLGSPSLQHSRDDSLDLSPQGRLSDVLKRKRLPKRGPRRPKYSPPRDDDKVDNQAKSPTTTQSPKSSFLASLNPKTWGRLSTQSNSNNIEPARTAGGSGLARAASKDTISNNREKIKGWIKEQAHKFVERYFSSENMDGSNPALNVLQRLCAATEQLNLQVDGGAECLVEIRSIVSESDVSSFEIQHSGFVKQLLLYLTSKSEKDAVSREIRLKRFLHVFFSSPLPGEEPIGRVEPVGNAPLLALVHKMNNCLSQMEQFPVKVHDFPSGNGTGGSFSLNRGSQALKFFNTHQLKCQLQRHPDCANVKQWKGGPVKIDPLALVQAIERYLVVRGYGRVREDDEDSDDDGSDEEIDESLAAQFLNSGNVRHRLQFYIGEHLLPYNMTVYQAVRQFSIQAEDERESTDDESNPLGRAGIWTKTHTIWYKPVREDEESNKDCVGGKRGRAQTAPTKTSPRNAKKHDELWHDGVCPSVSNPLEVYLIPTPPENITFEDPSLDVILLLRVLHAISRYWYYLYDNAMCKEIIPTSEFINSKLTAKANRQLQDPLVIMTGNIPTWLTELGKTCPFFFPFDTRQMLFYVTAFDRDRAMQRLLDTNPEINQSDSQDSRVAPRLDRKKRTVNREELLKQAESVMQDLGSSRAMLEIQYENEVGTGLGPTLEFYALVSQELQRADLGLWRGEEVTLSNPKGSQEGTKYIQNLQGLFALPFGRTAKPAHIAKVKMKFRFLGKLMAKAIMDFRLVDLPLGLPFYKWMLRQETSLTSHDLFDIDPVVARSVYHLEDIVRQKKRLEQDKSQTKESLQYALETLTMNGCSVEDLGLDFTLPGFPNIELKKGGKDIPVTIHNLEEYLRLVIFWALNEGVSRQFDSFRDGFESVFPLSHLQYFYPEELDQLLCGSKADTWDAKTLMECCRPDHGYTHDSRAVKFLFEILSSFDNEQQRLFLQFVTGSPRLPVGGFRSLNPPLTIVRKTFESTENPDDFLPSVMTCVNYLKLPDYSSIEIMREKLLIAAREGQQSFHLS
UniProt Q13427: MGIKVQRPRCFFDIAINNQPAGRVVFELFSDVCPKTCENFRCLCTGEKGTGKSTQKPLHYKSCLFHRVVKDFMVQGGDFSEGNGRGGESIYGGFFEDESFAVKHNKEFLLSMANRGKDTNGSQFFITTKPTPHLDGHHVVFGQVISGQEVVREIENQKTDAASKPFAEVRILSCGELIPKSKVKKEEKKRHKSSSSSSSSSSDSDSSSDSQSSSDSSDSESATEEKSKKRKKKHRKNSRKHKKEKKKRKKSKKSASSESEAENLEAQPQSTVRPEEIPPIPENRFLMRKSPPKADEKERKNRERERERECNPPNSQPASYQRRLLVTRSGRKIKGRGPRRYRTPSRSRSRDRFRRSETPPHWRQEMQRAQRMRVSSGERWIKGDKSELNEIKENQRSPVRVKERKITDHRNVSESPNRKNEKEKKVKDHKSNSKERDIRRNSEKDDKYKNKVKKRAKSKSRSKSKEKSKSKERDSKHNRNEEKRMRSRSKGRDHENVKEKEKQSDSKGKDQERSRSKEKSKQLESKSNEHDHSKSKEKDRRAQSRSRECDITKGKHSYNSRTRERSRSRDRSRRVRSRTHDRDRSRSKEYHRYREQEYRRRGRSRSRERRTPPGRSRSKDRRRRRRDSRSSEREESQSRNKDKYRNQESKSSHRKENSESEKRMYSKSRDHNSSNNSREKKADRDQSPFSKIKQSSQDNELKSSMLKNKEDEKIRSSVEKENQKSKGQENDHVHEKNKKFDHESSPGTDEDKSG

This is one part of the list. Most values lie at the level of the controls, where differences are scatter.

Compound in this assay: Cc1nc(Nc2ncc(C(=O)Nc3c(C)cccc3Cl)s2)cc(N2CCN(CCO)CC2)n1 [dasatinib]
Kind of assay: log2 fold change of tryptic peptide abundance, ligand vs vehicle (limited proteolysis) (log2 ratio); higher = more trypsin-susceptible (destabilized). The conditions noted are these: ligand concentration: 5 uM; sample: K562 cleared lysate.
Consider “PDAP1 (peptide sequence: AREEEEQK, peptide start residue: 34) (UniProt Q13442)”, for which the log2 fold change was 0.13.
In the case of “MAP7 (peptide sequence: PASAISGQNNNHSGNKPDPPPVLR, peptide start residue: 39) (UniProt Q14244)” it was 0.381; in that of “UniProt Q147X3 (peptide sequence: NGIGTNLVKK, peptide start residue: 296)”, 0.88; in that of “CHAF1A (peptide sequence: QHSSTSPFPTSTPLRR, peptide start residue: 305) (UniProt Q13111)”, -0.503.
With “RBM39 (peptide sequence: CPSIAAAIAAVNALHGR, peptide start residue: 478) (UniProt Q14498)” the figure was -0.481.
Consider “FAM50A (peptide sequence: WEPYDPEKK, peptide start residue: 324) (UniProt Q14320)”, for which the log2 fold change was -0.208.
Regarding “FHL2 (peptide sequence: QWHNDCFNCKKCSLSLVGR, peptide start residue: 243) (UniProt Q14192)”, the log2 fold change is -0.549.
In the case of “ATXN7L3 (peptide sequence: SKECVCPNCSR, peptide start residue: 81) (UniProt Q14CW9)” it was 0.728; in that of “MTMR1 (peptide sequence: GSSPSHSATSVHTSV, peptide start residue: 651) (UniProt Q13613)”, 0.056.
Consider “UniProt Q14444 (peptide sequence: QILGVIDK, peptide start residue: 56)”, for which the log2 fold change was -0.136.
On to “SELENBP1 (peptide sequence: TKLVLPSLISSR, peptide start residue: 92) (UniProt Q13228)”, for which the log2 fold change was determined as 0.374.
In the case of “MELK (peptide sequence: LKGDAWVYKR, peptide start residue: 631) (UniProt Q14680)” it was 0.753; in that of “FADD (peptide sequence: NTEKENATVAHLVGALR, peptide start residue: 150) (UniProt Q13158)”, 0.0815; in that of “PDE3B (peptide sequence: LMETQQEEETEKK, peptide start residue: 616) (UniProt Q13370)”, -0.421.
Take “EIF3I (peptide sequence: LWDCETGK, peptide start residue: 78) (UniProt Q13347)”: the log2 fold change was -0.13.
Consider “TRIP12 (peptide sequence: SPTTTQSPK, peptide start residue: 1030) (UniProt Q14669)”, for which the log2 fold change was found to be 0.378.
In the case of “UniProt Q14929 (peptide sequence: GADTSESGAVIR, peptide start residue: 203)” it was -0.26; in that of “DYNC1H1 (peptide sequence: TFDHYCEYR, peptide start residue: 2634) (UniProt Q14204)”, -0.27.
With “PPIG (peptide sequence: SNEHDHSK, peptide start residue: 527) (UniProt Q13427)”, the log2 fold change came to 0.609.
In the case of “MEF2D (peptide sequence: ASEELDGLFR, peptide start residue: 120) (UniProt Q14814)”, the log2 fold change was -0.34.
With “COTL1 (peptide sequence: AGGANYDAQTE, peptide start residue: 132) (UniProt Q14019)”, the log2 fold change amounted to 0.491.
On to “WRN (peptide sequence: DNVAVMATGYGK, peptide start residue: 566) (UniProt Q14191)”, for which the log2 fold change was determined as 0.541.
In the case of “ZNF638 (peptide sequence: GNMDEKEEKEFNTK, peptide start residue: 1305) (UniProt Q14966)” it was -0.534; in that of “KCTD2 (peptide sequence: GHGRPAAAVAQPLEPGPGPPER, peptide start residue: 43) (UniProt Q14681)”, -0.0517.
With “UniProt Q13233 (peptide sequence: ATCMPAWKHEWLER, peptide start residue: 191)” the figure was -0.381; with “ROCK1 (peptide sequence: TSNIKLDK, peptide start residue: 455) (UniProt Q13464)”, 0.211.
